This passage reports step yield results from US4746648A (Sanofi; Institut National de la Recherche Medicale, priority 1985, dated 1988).

This data set is described as follows: general procedure: solution-phase peptide synthesis; DCCI/HOBt; Bop; Boc-Phe-ONp/HOBt. The following applies: coupling step.

Some peptides are written in HELM: one residue between dots, names in brackets for other building blocks, links after the first $.

For “PEPTIDE1{[Boc].F.[Asp(OBzl)].[Sta].A.L.[OMe]}$$$$V2.0”, the step yield came out at 50%.
